# Laboratory results reported in the supplement of paper PMC12067093, “Discovery and optimisation of a covalent ligand for TRIM25 and its application to targeted protein ubiquitination” (Chemical Science, 2025).
# By UniProt entry, the sequences of proteins in these tests, tags left out. Where a name states a change or a piece, a line headed by the entry shows the natural chain unless it says otherwise.
# UniProt P27695, whole entry, looked up: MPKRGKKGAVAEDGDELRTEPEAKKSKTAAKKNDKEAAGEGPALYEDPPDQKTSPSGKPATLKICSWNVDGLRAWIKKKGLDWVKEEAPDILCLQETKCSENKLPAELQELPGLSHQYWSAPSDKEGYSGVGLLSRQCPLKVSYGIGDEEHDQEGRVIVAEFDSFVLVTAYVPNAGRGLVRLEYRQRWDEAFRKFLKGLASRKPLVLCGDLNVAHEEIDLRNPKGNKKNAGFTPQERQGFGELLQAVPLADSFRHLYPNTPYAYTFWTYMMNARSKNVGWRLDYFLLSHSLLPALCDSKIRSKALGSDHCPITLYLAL
# UniProt Q9P2R3: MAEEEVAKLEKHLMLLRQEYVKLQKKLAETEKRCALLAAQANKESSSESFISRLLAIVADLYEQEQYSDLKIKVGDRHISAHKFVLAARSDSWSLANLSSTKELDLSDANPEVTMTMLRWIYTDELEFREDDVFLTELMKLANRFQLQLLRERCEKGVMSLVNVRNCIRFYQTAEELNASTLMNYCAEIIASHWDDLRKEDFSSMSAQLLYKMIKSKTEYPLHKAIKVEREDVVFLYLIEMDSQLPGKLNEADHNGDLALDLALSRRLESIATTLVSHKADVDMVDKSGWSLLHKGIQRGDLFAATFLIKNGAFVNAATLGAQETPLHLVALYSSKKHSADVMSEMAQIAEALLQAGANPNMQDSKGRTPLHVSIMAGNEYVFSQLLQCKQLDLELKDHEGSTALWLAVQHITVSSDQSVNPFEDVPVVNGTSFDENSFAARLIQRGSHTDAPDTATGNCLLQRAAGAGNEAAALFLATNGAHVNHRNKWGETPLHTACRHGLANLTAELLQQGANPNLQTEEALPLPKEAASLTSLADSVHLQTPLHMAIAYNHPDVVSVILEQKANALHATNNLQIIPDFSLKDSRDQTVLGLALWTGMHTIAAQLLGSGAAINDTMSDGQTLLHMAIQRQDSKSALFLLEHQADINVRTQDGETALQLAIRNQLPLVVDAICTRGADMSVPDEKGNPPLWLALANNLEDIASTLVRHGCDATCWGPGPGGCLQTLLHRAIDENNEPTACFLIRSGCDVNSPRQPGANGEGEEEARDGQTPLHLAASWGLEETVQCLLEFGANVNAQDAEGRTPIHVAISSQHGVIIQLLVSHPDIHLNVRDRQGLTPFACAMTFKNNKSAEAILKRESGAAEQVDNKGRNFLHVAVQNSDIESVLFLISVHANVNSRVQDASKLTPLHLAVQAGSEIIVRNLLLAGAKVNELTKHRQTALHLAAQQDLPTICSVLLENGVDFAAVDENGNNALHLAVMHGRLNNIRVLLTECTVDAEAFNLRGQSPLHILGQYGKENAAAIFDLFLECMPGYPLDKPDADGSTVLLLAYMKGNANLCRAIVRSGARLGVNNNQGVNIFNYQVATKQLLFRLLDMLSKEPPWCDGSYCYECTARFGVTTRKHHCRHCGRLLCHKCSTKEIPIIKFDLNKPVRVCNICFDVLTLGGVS
# UniProt O95782: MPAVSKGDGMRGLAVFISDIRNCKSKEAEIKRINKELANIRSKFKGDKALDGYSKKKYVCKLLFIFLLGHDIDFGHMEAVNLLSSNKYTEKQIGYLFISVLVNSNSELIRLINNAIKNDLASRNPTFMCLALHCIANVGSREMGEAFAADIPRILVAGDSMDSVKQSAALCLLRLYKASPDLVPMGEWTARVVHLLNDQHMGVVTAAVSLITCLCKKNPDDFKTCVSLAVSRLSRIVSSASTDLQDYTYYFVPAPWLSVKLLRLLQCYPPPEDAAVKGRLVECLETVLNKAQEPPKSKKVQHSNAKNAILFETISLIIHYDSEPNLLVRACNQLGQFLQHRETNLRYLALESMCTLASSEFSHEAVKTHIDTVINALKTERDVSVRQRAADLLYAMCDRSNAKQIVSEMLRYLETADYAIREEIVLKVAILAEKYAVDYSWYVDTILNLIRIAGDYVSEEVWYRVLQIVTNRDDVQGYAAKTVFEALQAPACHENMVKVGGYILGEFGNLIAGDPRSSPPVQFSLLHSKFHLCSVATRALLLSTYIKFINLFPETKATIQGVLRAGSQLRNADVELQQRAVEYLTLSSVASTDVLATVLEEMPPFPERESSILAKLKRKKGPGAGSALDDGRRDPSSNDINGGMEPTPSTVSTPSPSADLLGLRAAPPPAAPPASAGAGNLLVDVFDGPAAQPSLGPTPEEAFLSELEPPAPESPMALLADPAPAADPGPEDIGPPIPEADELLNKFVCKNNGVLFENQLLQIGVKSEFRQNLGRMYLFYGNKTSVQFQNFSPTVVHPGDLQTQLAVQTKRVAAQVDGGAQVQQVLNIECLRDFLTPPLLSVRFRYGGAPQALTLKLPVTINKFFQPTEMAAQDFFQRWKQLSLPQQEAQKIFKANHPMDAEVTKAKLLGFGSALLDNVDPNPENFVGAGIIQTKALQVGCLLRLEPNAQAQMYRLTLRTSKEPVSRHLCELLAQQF
# UniProt Q7Z5R6: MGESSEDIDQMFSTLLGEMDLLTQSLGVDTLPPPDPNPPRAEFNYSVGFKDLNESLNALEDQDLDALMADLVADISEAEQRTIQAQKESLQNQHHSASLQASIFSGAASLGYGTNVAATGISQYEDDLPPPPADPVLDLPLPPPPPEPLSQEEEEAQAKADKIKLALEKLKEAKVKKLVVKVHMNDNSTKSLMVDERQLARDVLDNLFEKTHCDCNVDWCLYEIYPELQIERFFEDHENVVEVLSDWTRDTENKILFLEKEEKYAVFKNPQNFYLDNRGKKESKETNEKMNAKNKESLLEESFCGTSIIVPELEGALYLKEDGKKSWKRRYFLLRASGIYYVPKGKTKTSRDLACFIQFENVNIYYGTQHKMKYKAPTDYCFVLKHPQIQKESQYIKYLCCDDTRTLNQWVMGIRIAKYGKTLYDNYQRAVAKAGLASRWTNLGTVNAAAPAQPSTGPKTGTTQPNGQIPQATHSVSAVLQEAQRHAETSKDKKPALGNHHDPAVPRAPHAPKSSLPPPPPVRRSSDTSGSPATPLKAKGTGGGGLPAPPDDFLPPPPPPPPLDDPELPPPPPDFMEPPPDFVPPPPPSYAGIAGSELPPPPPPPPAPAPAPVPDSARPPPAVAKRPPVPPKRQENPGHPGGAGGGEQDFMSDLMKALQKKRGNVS
# UniProt Q8NB46: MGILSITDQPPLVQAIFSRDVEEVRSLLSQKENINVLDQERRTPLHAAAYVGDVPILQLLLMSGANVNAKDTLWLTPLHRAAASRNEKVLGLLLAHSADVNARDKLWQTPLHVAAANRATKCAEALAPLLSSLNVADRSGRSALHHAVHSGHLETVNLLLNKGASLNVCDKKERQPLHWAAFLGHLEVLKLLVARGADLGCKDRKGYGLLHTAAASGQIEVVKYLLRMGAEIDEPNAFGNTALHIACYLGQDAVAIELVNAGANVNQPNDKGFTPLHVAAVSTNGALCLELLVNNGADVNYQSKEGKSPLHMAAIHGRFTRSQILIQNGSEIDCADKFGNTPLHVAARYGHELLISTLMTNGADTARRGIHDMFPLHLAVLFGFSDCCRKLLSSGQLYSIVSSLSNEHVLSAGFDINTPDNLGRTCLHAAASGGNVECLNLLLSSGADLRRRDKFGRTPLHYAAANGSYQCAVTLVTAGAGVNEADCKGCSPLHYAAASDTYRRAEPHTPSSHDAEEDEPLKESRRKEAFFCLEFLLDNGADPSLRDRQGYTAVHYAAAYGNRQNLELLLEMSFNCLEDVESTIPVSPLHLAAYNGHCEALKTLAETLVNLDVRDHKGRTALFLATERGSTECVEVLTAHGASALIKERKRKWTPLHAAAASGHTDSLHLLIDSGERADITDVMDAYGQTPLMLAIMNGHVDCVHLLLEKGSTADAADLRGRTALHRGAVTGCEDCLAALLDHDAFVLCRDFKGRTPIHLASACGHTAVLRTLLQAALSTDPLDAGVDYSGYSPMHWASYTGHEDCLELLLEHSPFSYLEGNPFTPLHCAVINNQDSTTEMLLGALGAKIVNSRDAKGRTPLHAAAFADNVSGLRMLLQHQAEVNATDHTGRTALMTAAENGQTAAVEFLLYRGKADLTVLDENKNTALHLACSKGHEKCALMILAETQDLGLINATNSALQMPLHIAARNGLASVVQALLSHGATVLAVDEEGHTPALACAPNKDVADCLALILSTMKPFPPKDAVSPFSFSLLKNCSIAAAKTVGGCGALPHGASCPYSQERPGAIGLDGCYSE
# UniProt P13798: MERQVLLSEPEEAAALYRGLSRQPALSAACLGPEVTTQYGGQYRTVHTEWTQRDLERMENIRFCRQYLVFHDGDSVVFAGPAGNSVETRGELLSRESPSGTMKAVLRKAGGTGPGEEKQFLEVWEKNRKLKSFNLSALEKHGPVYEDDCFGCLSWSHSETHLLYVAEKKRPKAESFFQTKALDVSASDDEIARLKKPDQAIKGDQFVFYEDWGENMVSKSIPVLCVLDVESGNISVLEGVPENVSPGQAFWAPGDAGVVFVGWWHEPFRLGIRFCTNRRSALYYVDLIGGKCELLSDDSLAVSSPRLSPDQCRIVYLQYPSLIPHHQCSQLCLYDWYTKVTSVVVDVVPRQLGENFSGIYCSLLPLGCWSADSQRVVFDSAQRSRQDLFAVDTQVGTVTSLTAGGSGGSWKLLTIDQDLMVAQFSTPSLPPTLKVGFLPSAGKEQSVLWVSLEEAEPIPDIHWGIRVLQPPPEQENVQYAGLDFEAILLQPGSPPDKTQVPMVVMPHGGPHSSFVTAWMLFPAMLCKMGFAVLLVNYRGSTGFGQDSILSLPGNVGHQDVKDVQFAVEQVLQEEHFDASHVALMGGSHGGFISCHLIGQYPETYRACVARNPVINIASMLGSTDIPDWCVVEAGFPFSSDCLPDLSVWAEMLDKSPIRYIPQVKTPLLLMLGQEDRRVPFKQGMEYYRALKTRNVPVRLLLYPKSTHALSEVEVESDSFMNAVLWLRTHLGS
# UniProt O14727: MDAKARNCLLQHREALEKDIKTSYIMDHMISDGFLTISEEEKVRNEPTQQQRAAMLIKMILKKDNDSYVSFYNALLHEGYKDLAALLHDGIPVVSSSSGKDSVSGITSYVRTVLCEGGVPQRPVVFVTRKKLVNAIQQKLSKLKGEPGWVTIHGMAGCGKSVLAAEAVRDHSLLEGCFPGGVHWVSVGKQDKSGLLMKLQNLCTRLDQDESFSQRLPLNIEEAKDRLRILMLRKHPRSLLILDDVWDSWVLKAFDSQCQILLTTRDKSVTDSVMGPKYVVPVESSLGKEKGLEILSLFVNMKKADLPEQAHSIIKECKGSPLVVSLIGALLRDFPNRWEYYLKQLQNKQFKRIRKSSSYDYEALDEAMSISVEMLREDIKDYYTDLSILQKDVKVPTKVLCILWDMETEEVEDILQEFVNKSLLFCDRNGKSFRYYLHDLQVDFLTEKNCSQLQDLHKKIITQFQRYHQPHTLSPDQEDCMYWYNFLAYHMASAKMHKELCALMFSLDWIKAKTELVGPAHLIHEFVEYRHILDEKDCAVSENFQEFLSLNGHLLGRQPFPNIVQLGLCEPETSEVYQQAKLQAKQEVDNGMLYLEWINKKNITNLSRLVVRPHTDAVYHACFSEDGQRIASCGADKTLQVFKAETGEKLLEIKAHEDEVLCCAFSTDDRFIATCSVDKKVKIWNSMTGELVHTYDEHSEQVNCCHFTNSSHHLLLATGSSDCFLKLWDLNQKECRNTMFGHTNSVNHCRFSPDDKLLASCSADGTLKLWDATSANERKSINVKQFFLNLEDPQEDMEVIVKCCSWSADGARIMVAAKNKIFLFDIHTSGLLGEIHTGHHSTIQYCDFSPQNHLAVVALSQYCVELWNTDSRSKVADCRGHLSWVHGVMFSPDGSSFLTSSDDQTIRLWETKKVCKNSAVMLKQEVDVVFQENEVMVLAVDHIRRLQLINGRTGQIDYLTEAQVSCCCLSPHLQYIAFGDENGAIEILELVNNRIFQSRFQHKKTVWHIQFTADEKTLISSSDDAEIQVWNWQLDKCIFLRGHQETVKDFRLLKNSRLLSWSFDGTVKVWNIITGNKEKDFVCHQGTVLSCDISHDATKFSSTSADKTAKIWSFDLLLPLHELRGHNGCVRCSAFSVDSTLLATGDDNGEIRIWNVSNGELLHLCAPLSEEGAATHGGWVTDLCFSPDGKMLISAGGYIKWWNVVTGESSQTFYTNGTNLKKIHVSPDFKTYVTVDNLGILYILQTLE
# UniProt Q8IUX4: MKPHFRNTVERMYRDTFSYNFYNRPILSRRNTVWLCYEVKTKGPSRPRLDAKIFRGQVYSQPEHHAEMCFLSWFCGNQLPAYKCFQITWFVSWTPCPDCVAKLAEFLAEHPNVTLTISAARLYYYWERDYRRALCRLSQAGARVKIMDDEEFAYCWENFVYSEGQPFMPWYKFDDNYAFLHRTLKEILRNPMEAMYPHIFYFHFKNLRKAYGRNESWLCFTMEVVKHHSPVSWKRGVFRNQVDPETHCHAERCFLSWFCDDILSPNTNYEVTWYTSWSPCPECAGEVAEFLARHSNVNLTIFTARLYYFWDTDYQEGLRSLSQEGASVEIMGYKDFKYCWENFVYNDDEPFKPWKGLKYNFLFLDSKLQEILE
# The other results are listed elsewhere or left out.
# Compound: CC1Cc2ccccc2N1C(=O)C1CCCN(C1)C(=O)CCl (mixture of isomers) [TRIM25 ligand 11 (diastereomer mixture)]
# Test: probe-labelled cysteine peptide fold change vs DMSO (competition) (log2 fold change); higher = less target engagement (more negative = stronger competition)
# Details: 10 µM; THP-1; incubation time: 4 h
# 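Note: competitive chemoproteomic profiling in live THP-1 cells with an iodoacetamide desthiobiotin (IA-DTB) probe, comparing probe-labelled peptide intensities in compound-treated cells against DMSO-treated controls.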
row,Target,probe-labelled cysteine peptide fold change
1,ANLN_Q9NQW6_469_QETHCQSTPLK (UniProt Q9NQW6),-0.086
2,ANKRD17_O75179_210_LTSSVSCALDEAAAALTR (UniProt O75179),0.198
3,APEX1_P27695_296_LDYFLLSHSLLPALCDSK (UniProt P27695),0.0977
4,AP5M1_Q9H0R1_444_ILDYTLTGCYADQHSVQVFASGKPK (UniProt Q9H0R1),0.0751
5,APEX1_P27695_310_ALGSDHCPITLYLAL (UniProt P27695),-0.0822
6,ANKFY1_Q9P2R3_724_HGCDATCWGPGPGGCLQTLLHR (UniProt Q9P2R3),-0.0309
7,AP2A1_O95782_397_AADLLYAMCDR (UniProt O95782),0.0823
8,AP2A1_O95782_213_VVHLLNDQHMGVVTAAVSLITCLCK (UniProt O95782),-0.123
9,ANO6_Q4KMQ2_426_CTHVVINEITQEEERIPFTAWGK (UniProt Q4KMQ2),-0.13
10,ANKRD28_O15084_387_GIHGMFPLHLAALSGFSDCCR (UniProt O15084),0.00609
11,AP3D1_O14617_1103_VDSCASMYSR (UniProt O14617),0.0668
12,APBB1IP_Q7Z5R6_381_YKAPTDYCFVLK (UniProt Q7Z5R6),-0.0427
13,AP3M2_P53677_236_LLDDVSFHPCVR (UniProt P53677),0.0141
14,ANKRD28_O15084_598_GHVECVDVLINQGASILVK (UniProt O15084),-0.00834
15,ANKRD52_Q8NB46_733_GAVTGCEDCLAALLDHDAFVLCR (UniProt Q8NB46),0.0415
16,API5_Q9BZZ5_345_LQFSYVECLLYSFHQLGR (UniProt Q9BZZ5),0.242
17,AP3M1_Q9Y2T2_288_ENSSCGR (UniProt Q9Y2T2),0.544
18,APBB1IP_Q7Z5R6_220_THCDCNVDWCLYEIYPELQIER (UniProt Q7Z5R6),-0.104
19,ANKRD44_Q8N8A2_834_FIGNPFTPLHCAIINDHGNCASLLLGAIDSSIVSCRDDK (UniProt Q8N8A2),-0.128

row,Target,probe-labelled cysteine peptide fold change
1,AP2A1_O95782_941_ALQVGCLLR (UniProt O95782),0.251
2,APEH_P13798_152_HGPVYEDDCFGCLSWSHSETHLLYVAEK (UniProt P13798),0.242
3,ANKLE2_Q86XL3_844_RLFLFGEEPSKLDQDVLAALECADVDPHQFPAVHR (UniProt Q86XL3),0.128
4,ANKS1A_Q92625_211_MLLNAHPNLLSCNTK (UniProt Q92625),0.0536
5,APAF1_O14727_662_AHEDEVLCCAFSTDDR (UniProt O14727),0.117
6,ANKFY1_Q9P2R3_995_VLLTECTVDAEAFNLR (UniProt Q9P2R3),0.097
7,ANKRD44_Q8N8A2_854_TPLHAAAFADHVECLQLLLR (UniProt Q8N8A2),0.0437
8,APEH_P13798_368_QLGENFSGIYCSLLPLGCWSADSQR (UniProt P13798),-0.459
9,ANKRD10_Q9NXR5_140_SGSLECISALVANGAHVDLR (UniProt Q9NXR5),-0.314
10,AP1G1_O43747_353_STIVDCLK (UniProt O43747),-0.0109
11,APAF1_O14727_749_NTMFGHTNSVNHCR (UniProt O14727),0.177
12,ANKHD1_Q8IWZ3_1965_QLFACVPK (UniProt Q8IWZ3),-0.0508
13,ANKRD28_O15084_838_TPLHAAAFTDHVECLQLLLSHNAQVNSVDSTGK (UniProt O15084),-0.0389
14,APOBEC3F_Q8IUX4_36_RNTVWLCYEVK (UniProt Q8IUX4),0.0263
15,ANKMY2_Q8IV38_390_LDVNSNCVNEEQPEAEVGISQK (UniProt Q8IV38),-0.0157
16,ANKRD44_Q8N8A2_704_EANVDTVDILGCTALHR (UniProt Q8N8A2),0.0909
17,ANKRD52_Q8NB46_733+749_GAVTGCEDCLAALLDHDAFVLCR (UniProt Q8NB46),0.0114
18,AP2A1_O95782_970_HLCELLAQQF (UniProt O95782),0.106
19,ANKRD27_Q96NW4_39_VAQIHGIVLVPCK (UniProt Q96NW4),0.0719

# Quoted from the listing (2 entries):
row,Target,probe-labelled cysteine peptide fold change
17,ANKRD52_Q8NB46_733+749_GAVTGCEDCLAALLDHDAFVLCR (UniProt Q8NB46),0.0114
18,AP2A1_O95782_970_HLCELLAQQF (UniProt O95782),0.106
